Data set [1] concerns the target DnaD (Bacillus subtilis 168CA) (UniProt P39787). Kind of data set: fluorescence polarisation. The conditions noted are these: FP: 10 mM HEPES-KOH pH 7.5, 1 mM Mg acetate, 100 mM K glutamate, 20 C, 1.875 nM DNA, DnaD up to 500 nM, 10 min, recombinant protein, residues 1-232, protein details: His14-SUMO tag removed. On the technique in general: Polarisation of emitted light reports the rotation of a fluorescent probe.

Chains of the proteins cited; added tags and fusions are not shown. Lines headed by an entry give the natural chain unless they say otherwise; changes in a name come on top.
UniProt P39787: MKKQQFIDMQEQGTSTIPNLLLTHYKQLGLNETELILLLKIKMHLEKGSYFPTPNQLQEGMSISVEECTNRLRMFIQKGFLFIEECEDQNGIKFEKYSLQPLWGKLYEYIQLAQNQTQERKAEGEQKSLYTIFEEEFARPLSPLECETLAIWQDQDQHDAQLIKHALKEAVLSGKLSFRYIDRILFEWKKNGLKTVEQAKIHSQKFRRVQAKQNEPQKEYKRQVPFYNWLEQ

In data set [2] the target is DnaD K221Bpa (Bacillus subtilis 168CA) (UniProt P39787). Nature of the data set: Bpa photo-crosslinking. The conditions noted are these: UV, recombinant protein, residues 1-232, protein details: His14-SUMO tag removed.
The mark [3] stands for this setting: label: fluorescein 5', single-stranded DNA.
Setting [4] is: label: Cy5 5', single-stranded DNA.

Negatives hold for the conditions tested. At least one verdict was read from the data and is not stated in words by the source. Weaker means in comparison with the reference protein, sequence or condition of that experiment. Construct, isoform or probe ends are uncertain for at least one entry.

For AAAAAAAAAAAAAAAAAA [polyA18 (oCW1090)], in data set [1] (setting [3]), the binding result is “binds more weakly”. Regarding “AAAAAAAAAAAAAAAAAA [polyA control (oSP1137)]”, the binding result in data set [2] (setting [4]) is “binds more weakly”.

Regarding “AAAAAAAAAAAAAAAAAAAAAAAAAAAAAAAAAAAAAAAA [polyA(40) (oCW853)]”, the binding result in data set [1] (setting [3]) was “binds more weakly”. For the sequence “ATAATAAAAAAAATAATA [polyA with two TnnT (oCW1129)]”, in data set [1] (setting [3]), the binding result was “binds”. Regarding “CACCACCCCCCCCACCAC [polyC with two AnnA (oCW1216)]”, the binding result in data set [1] (setting [3]) is reported as “no binding”. The same measure, in the same setting: the result for “CCCCCCCCCCCCCTCCTC [single TnnT (oCW1165)]” reads “no binding”; that for “CCCCCCCTCCTCCCCCCC [single TnnT (oCW1140)]”, “no binding”; that for “CTACTATTACTTCAACAA [DRE mutant TnnT to AnnA (oCW1247)]”, “binds more weakly”. For the sequence “CTACTATTACTTCTACTA (double strand) [DRE dsDNA (oSP1132:oCW1040)]”, in data set [2] (label: Cy5 5' on strand 1), the binding result is recorded as “no binding”. Take CTACTATTACTTCTACTA [DRE (oSP1132)]: in data set [2] (setting [4]), the binding result is “binds”. Consider “CTCCTCCCCCCCCCCCCC [single TnnT (oCW1164)]”, for which, in data set [1] (setting [3]), the binding result is “no binding”. Take “CTCCTCCTCCTCCTCCTC [polyC with T every third base (oCW1139)]”: in data set [1] (setting [3]), the binding result is “binds”. Take “CTTCTTTTTCTTCTTCTT [polyT with DRE cytosines (oCW1054)]”: the binding result in data set [1] (weaker than DRE, stronger than polyT18, label: fluorescein 5', single-stranded DNA) was “binds more weakly”. On to “GATGATAATGAAGATGAT [DnaA trios (oSP1133)]”, for which, in data set [2] (setting [4]), the binding result is recorded as “binds more weakly”. In the case of “TCACTCAAAGGCGGTAATAC (double strand) [dsDNA (oCW1034:oCW1124)]”, the binding result in data set [1] (label: fluorescein 5' on strand 2) was “binds more weakly”. In the case of “TTATTATTATTTTTATTA [polyT with DRE adenines (oCW1691)]”, the binding result in data set [1] (similar to polyT18, label: fluorescein 5', single-stranded DNA) is listed as “binds more weakly”. Consider “TTTTTTTTTTTTTTTTTT [polyT control (oSP1135)]”, for which the binding result in data set [2] (setting [4]) is on record as “binds more weakly”.

Source of the values: article PMC10201434, “The DNA replication initiation protein DnaD recognises a specific strand of the Bacillus subtilis chromosome origin” (Nucleic Acids Research, 2021).
